From patent US20250289886A1 come the findings set out here.

The target of one assay is T1, CD300c antigen (UniProt Q08708).
T1 sequence (looked up): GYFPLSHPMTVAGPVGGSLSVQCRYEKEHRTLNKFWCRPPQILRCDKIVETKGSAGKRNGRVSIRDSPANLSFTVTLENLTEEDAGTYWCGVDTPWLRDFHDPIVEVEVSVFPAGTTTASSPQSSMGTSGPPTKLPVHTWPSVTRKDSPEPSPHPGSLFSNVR
Kind of assay: binding ELISA, CD300c antigen coated on plate. (An ELISA detects its analyte on a solid surface through an enzyme-linked reagent.)

Assay [1] concerns the target T2, CD300c overexpressed on 293T cells (UniProt Q08708).
T2 sequence (looked up): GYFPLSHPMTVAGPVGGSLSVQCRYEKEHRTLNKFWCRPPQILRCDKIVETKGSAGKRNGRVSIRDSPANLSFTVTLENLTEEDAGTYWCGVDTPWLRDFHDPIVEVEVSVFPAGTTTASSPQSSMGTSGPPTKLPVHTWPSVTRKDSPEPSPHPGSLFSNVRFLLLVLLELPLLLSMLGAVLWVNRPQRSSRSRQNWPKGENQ
In words: flow cytometry (FACS binding) on 293T cells overexpressing CD300c.

These are yes or no findings as the source states them, for the method shown. Some entries that bind do so weakly or less than the wild type.

B1: anti-CD300c monoclonal antibody CL10 (antibody, V domains shown)
VH: EVQLLESGGGLVQPGGSLRLSCAASGFTFSSYGMHWVRQAPGKGLEWVSAISGSGGSTYYADSVKGRFTISRDNSKNTLYLQMNSLRAEDTAVYYCASGYGLMDVWGQGTLVTVSS
VL: QSVLTQPPSASGTPGQRVTISCTRSSGIIASNYVQWYQQLPGTAPKLLIYRNNQRPSGVPDRFSGSKSGTSASLAISGLRSEDEADYYCSSYAGNNNLVFGGGTKLTVL
As to B1, the binding entry with CD300c antigen was “binds”.

B2: anti-CD300c monoclonal antibody SL18 (antibody, V domains shown)
VH: RVQLLESGGGLVQPGGSLRLSCAASGFTFSDYHMHWVRQAPGKGLEWVSTISSSGGYTYYAESVKSRFTISRDNSKNTLYLQMNSLRAEDTAVYYCARSIRLPLDYWGQGTLVTVSS
VL: QSVLTQPPSASGTPGQRVTISCSGNNIGSKGVHWYQQLPGTAPKLLIYEDSKRPSGVRDRFSGSKSGTSASLAISGLRSEDEADYYCQSYDSTKGVVFGGGTKLTVL
For the molecule B2, in the assay with CD300c antigen, the binding entry is “binds”.

B3: anti-CD300c monoclonal antibody CB201 (antibody, V domains shown)
VH: EVQLLESGGGLVQPGGSLRLSCAASGFTFSRYAMSWVRQAPGKGLEWVSAISGSGGSTYYADSVKGRFTISRDNSKNTLYLQMNSLRAEDTAVYYCARSSQGIFDIWGQGTLVTVSS
VL: QSVLTQPPSASGTPGQRVTISCSGNNIGTRRVHWYQQLPDTAPKLLIYSKNNRPSGVPDRFSGSKSGTSASLAISGLRSEDEADYYCAAWDDSLSGPVFGGGTKLTVL
Take B3: the binding entry (with CD300c antigen; in assay [1]) was “binds” in each case.
